Values of other authors as cited in US20110082203A1, “PROCESS TO DIAGNOSE OR TREAT BRAIN INJURY” (priority 2008, published 2011).

System: muscarinic receptors
Settings: given at the time of injury; cited from earlier work

CN1[C@@H]2C[C@@H](OC(=O)[C@H](CO)c3ccccc3)C[C@H]1[C@@H]1O[C@@H]12 [scopolamine]
Acute decrease in PIP2 derived fatty acids after TBI: significantly blunts
